# Assay results as given in the supplement of paper PMC8728848.
# The other results are listed elsewhere or left out.
# Experiments:
# Assay in all cases: glycan array binding signal (z-score within array); higher = stronger binding
# Settings in all cases: glycan notation: IUPAC condensed, linker removed
# [1] = target: Fuc(a1-2)Gal(b1-4)[Fuc(a1-3)]GlcNAc(b1-2)Man(a1-3)[Fuc(a1-2)Gal(b1-4)[Fuc(a1-3)]GlcNAc(b1-2)Man(a1-6)]Man(b1-4)GlcNAc(b1-4)[Fuc(a1-6)]GlcNAc
# Procedure, shortened: (§1)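 Glycan array binding is given as a within-array Z-score, which can be read as non-binding when negative. The arrays, 3228 of them, came from the Consortium for Functional Glycomics database and were retained only where the protein sequence was available. Z-scores were averaged across arrays of the same protein sequence at different concentrations or buffers and across linkers.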
# [2] = target: Fuc(a1-2)Gal(b1-4)[Fuc(a1-3)]GlcNAc(b1-2)[Fuc(a1-2)Gal(b1-4)[Fuc(a1-3)]GlcNAc(b1-4)]Man(a1-3)[Fuc(a1-2)Gal(b1-4)[Fuc(a1-3)]GlcNAc(b1-2)Man(a1-6)]Man(b1-4)GlcNAc(b1-4)GlcNAc
# Procedure, shortened: as §1
# [3] = target: Fuc(a1-2)Gal(b1-4)[Fuc(a1-3)]GlcNAc(b1-3)Gal(b1-4)[Fuc(a1-3)]GlcNAc
# Procedure, shortened: as §1
# [4] = target: Fuc(a1-2)Gal(b1-4)[Fuc(a1-3)]GlcNAc(b1-3)Gal(b1-4)[Fuc(a1-3)]GlcNAc(b1-3)Gal(b1-4)[Fuc(a1-3)]GlcNAc
# Procedure, shortened: as §1
# [5] = target: Fuc(a1-2)Gal(b1-4)[Fuc(a1-3)]GlcNAc(b1-3)GalNAc
# Procedure, shortened: as §1
# [6] = target: Fuc(a1-2)Gal(b1-4)[Fuc(a1-3)]GlcNAc(b1-3)[Neu5Ac(a2-6)Gal(b1-4)GlcNAc(b1-6)]Gal(b1-4)Glc
# Procedure, shortened: as §1
# [7] = target: Fuc(a1-2)Gal3S(b1-4)GlcNAc
# Procedure, shortened: as §1
# [8] = target: Fuc(a1-2)Gal6S(b1-3)GlcNAc
# Procedure, shortened: as §1
# [9] = target: Fuc(a1-2)Gal6S(b1-3)GlcNAc6S
# Procedure, shortened: as §1
# Fuc(a1-2)Gal6S(b1-4)Glc = target: Fuc(a1-2)Gal6S(b1-4)Glc
# Procedure, shortened: as §1
# [10] = target: Fuc(a1-2)Gal6S(b1-4)Glc6S
# Procedure, shortened: as §1
# Fuc(a1-2)[Gal(a1-3)]Gal = target: Fuc(a1-2)[Gal(a1-3)]Gal
# Procedure, shortened: as §1
# [11] = target: Fuc(a1-2)[Gal(a1-3)]Gal(b1-3)GalNAc
# Procedure, shortened: as §1
# [12] = target: Fuc(a1-2)[Gal(a1-3)]Gal(b1-3)GalNAc(b1-3)Gal(a1-4)Gal(b1-4)Glc
# Procedure, shortened: as §1
# [13] = target: Fuc(a1-2)[Gal(a1-3)]Gal(b1-3)GlcNAc
# Procedure, shortened: as §1
# [14] = target: Fuc(a1-2)[Gal(a1-3)]Gal(b1-3)GlcNAc(b1-2)Man(a1-3)[Fuc(a1-2)[Gal(a1-3)]Gal(b1-3)GlcNAc(b1-2)Man(a1-6)]Man(b1-4)GlcNAc(b1-4)GlcNAc
# Procedure, shortened: as §1
# [15] = target: Fuc(a1-2)[Gal(a1-3)]Gal(b1-3)GlcNAc(b1-2)Man(a1-3)[Fuc(a1-2)[Gal(a1-3)]Gal(b1-3)GlcNAc(b1-2)Man(a1-6)]Man(b1-4)GlcNAc(b1-4)[Fuc(a1-6)]GlcNAc
# Procedure, shortened: as §1
# [16] = target: Fuc(a1-2)[Gal(a1-3)]Gal(b1-3)GlcNAc(b1-3)GalNAc
# Procedure, shortened: as §1
# [17] = target: Fuc(a1-2)[Gal(a1-3)]Gal(b1-3)GlcNAc(b1-6)GalNAc
# Procedure, shortened: as §1
# [18] = target: Fuc(a1-2)[Gal(a1-3)]Gal(b1-4)Glc
# Procedure, shortened: as §1
# [19] = target: Fuc(a1-2)[Gal(a1-3)]Gal(b1-4)GlcNAc
# Procedure, shortened: as §1
# [20] = target: Fuc(a1-2)[Gal(a1-3)]Gal(b1-4)GlcNAc(b1-2)Man
# Procedure, shortened: as §1
# [21] = target: Fuc(a1-2)[Gal(a1-3)]Gal(b1-4)GlcNAc(b1-2)Man(a1-3)[Fuc(a1-2)[Gal(a1-3)]Gal(b1-4)GlcNAc(b1-2)Man(a1-6)]Man(b1-4)GlcNAc(b1-4)GlcNAc
# Procedure, shortened: as §1
# [22] = target: Fuc(a1-2)[Gal(a1-3)]Gal(b1-4)GlcNAc(b1-2)Man(a1-3)[Fuc(a1-2)[Gal(a1-3)]Gal(b1-4)GlcNAc(b1-2)Man(a1-6)]Man(b1-4)GlcNAc(b1-4)[Fuc(a1-6)]GlcNAc
# Procedure, shortened: as §1
# [23] = target: Fuc(a1-2)[Gal(a1-3)]Gal(b1-4)GlcNAc(b1-3)GalNAc
# Procedure, shortened: as §1
# [24] = target: Fuc(a1-2)[Gal(a1-3)]Gal(b1-4)GlcNAc(b1-3)[Fuc(a1-2)[Gal(a1-3)]Gal(b1-4)GlcNAc(b1-6)]GalNAc
# Procedure, shortened: as §1
# [25] = target: Fuc(a1-2)[Gal(a1-3)]Gal(b1-4)GlcNAc(b1-6)GalNAc
# Procedure, shortened: as §1
# [26] = target: Fuc(a1-2)[Gal(a1-3)]Gal(b1-4)[Fuc(a1-3)]Glc
# Procedure, shortened: as §1
# [27] = target: Fuc(a1-2)[Gal(a1-3)]Gal(b1-4)[Fuc(a1-3)]GlcNAc
# Procedure, shortened: as §1
# [28] = target: Fuc(a1-2)[Gal(a1-3)]Gal(b1-4)[Fuc(a1-3)]GlcNAc(b1-3)GalNAc
# Procedure, shortened: as §1
# [29] = target: Fuc(a1-2)[Gal(a1-4)]Gal(b1-4)GlcNAc
# Procedure, shortened: as §1
# [30] = target: Fuc(a1-2)[GalNAc(a1-3)]Gal
# Procedure, shortened: as §1
# [31] = target: Fuc(a1-2)[GalNAc(a1-3)]Gal(b1-3)GalNAc(a1-3)[Fuc(a1-2)]Gal(b1-4)GlcNAc
# Procedure, shortened: as §1
# [32] = target: Fuc(a1-2)[GalNAc(a1-3)]Gal(b1-3)GalNAc(b1-3)Gal(a1-4)Gal(b1-4)Glc
# Procedure, shortened: as §1
# [33] = target: Fuc(a1-2)[GalNAc(a1-3)]Gal(b1-3)GlcNAc
# Procedure, shortened: as §1
# [34] = target: Fuc(a1-2)[GalNAc(a1-3)]Gal(b1-3)GlcNAc(b1-2)Man(a1-3)[Fuc(a1-2)[GalNAc(a1-3)]Gal(b1-3)GlcNAc(b1-2)Man(a1-6)]Man(b1-4)GlcNAc(b1-4)GlcNAc
# Procedure, shortened: as §1
# [35] = target: Fuc(a1-2)[GalNAc(a1-3)]Gal(b1-3)GlcNAc(b1-2)Man(a1-3)[Fuc(a1-2)[GalNAc(a1-3)]Gal(b1-3)GlcNAc(b1-2)Man(a1-6)]Man(b1-4)GlcNAc(b1-4)[Fuc(a1-6)]GlcNAc
# Procedure, shortened: as §1
# [36] = target: Fuc(a1-2)[GalNAc(a1-3)]Gal(b1-3)GlcNAc(b1-3)GalNAc
# Procedure, shortened: as §1
binder,measurement,setting,value
PX9961K-bvu-480-28-480 (Bacteroides vulgatus) (protein) NKIPTTMAFRTVTDVDNAVNGLYDLMSGSGYYGAAMFAYGDMKGDDMQSSEESGVCNTCYMFNHRPNSLNAGSLWGRPFYILREAWNILNAIAEGKIESGDEKKLNALKGETMAVIALCQFDLTRCFGYPYTKDKGASLGAPLIDHLVGTYENPPRSTVAQAYDFIIETLEEAVTLMSEEKNNGRMNKYAARALLARIYLYHDDNRKAFDLADQLIKDADTSGSYALYPHEKYVAAWSVEAKFGSESFFEIANSVDDTPGRDSWGYLLNWYGYQKGFVTQKYAEQMLADPGDVRGHLLEENKYAGKTVWWLYKLRGTDLKTAPLECNNVVLRLSEVYLIAAEAGCKLGGDAAVQGLGYLNEIVKRGNPDNEVTMADYTLDRVLDERSKELVGEGHRFFDLLRNGKTIVRKGGYHLPSVDEEVDWDFYKCVLPIPEDQFIFSPEMEQNPGYPKN,glycan array binding signal (z-score),[1],0.056
same,glycan array binding signal (z-score),[2],0.069
same,glycan array binding signal (z-score),[3],1.38
same,glycan array binding signal (z-score),[4],0.101
same,glycan array binding signal (z-score),[5],0.48
same,glycan array binding signal (z-score),[6],-0.921
same,glycan array binding signal (z-score),[7],0.169
same,glycan array binding signal (z-score),[8],-0.375
same,glycan array binding signal (z-score),[9],0.05
same,glycan array binding signal (z-score),Fuc(a1-2)Gal6S(b1-4)Glc,0.599
same,glycan array binding signal (z-score),[10],-0.007
same,glycan array binding signal (z-score),Fuc(a1-2)[Gal(a1-3)]Gal,0.527
same,glycan array binding signal (z-score),[11],0.128
same,glycan array binding signal (z-score),[12],1.37
same,glycan array binding signal (z-score),[13],-0.605
same,glycan array binding signal (z-score),[14],-0.095
same,glycan array binding signal (z-score),[15],-0.336
same,glycan array binding signal (z-score),[16],0.431
same,glycan array binding signal (z-score),[17],-0.313
same,glycan array binding signal (z-score),[18],-0.108
same,glycan array binding signal (z-score),[19],-0.62
same,glycan array binding signal (z-score),[20],1.22
same,glycan array binding signal (z-score),[21],-0.256
same,glycan array binding signal (z-score),[22],-0.328
same,glycan array binding signal (z-score),[23],-0.904
same,glycan array binding signal (z-score),[24],-0.606
same,glycan array binding signal (z-score),[25],0.218
same,glycan array binding signal (z-score),[26],0.151
same,glycan array binding signal (z-score),[27],-0.093
same,glycan array binding signal (z-score),[28],-0.75
same,glycan array binding signal (z-score),[29],0.458
same,glycan array binding signal (z-score),[30],0.169
same,glycan array binding signal (z-score),[31],0.026
same,glycan array binding signal (z-score),[32],-0.401
same,glycan array binding signal (z-score),[33],-0.589
same,glycan array binding signal (z-score),[34],-0.403
same,glycan array binding signal (z-score),[35],-0.488
same,glycan array binding signal (z-score),[36],0.507

# Pulled one by one from the entries so far (two):
binder,measurement,setting,value
PX9961K-bvu-480-28-480 (Bacteroides vulgatus) (protein) NKIPTTMAFRTVTDVDNAVNGLYDLMSGSGYYGAAMFAYGDMKGDDMQSSEESGVCNTCYMFNHRPNSLNAGSLWGRPFYILREAWNILNAIAEGKIESGDEKKLNALKGETMAVIALCQFDLTRCFGYPYTKDKGASLGAPLIDHLVGTYENPPRSTVAQAYDFIIETLEEAVTLMSEEKNNGRMNKYAARALLARIYLYHDDNRKAFDLADQLIKDADTSGSYALYPHEKYVAAWSVEAKFGSESFFEIANSVDDTPGRDSWGYLLNWYGYQKGFVTQKYAEQMLADPGDVRGHLLEENKYAGKTVWWLYKLRGTDLKTAPLECNNVVLRLSEVYLIAAEAGCKLGGDAAVQGLGYLNEIVKRGNPDNEVTMADYTLDRVLDERSKELVGEGHRFFDLLRNGKTIVRKGGYHLPSVDEEVDWDFYKCVLPIPEDQFIFSPEMEQNPGYPKN,glycan array binding signal (z-score),[2],0.069
same,glycan array binding signal (z-score),[3],1.38
